Test results taken from PubChem BioAssay AID588590 (National Center for Advancing Translational Sciences (NCATS), 2011).
Hit rate of the full screen: of about 390,000 compounds, about 4,000 (1%) were called active. This list was built around the results that the source calls inconclusive (neither active nor inactive); the mix of calls is not that of the screen. Calls come from the whole dose curve; as a rule, active = well fitted inhibition curve with a large enough effect; inconclusive = small, poorly fitted or top-dose-only effect, or another doubt; inactive = no such curve, though single readings can be large or run the other way. Potencies beside an inconclusive call are fits to weak or partial responses and may not hold up.
Potency is the fitted concentration of half-maximal effect.

By UniProt entry, the sequences of proteins in these tests, tags left out. Where a name states a change or a piece, a line headed by the entry shows the natural chain unless it says otherwise.
UniProt Q9UNA4: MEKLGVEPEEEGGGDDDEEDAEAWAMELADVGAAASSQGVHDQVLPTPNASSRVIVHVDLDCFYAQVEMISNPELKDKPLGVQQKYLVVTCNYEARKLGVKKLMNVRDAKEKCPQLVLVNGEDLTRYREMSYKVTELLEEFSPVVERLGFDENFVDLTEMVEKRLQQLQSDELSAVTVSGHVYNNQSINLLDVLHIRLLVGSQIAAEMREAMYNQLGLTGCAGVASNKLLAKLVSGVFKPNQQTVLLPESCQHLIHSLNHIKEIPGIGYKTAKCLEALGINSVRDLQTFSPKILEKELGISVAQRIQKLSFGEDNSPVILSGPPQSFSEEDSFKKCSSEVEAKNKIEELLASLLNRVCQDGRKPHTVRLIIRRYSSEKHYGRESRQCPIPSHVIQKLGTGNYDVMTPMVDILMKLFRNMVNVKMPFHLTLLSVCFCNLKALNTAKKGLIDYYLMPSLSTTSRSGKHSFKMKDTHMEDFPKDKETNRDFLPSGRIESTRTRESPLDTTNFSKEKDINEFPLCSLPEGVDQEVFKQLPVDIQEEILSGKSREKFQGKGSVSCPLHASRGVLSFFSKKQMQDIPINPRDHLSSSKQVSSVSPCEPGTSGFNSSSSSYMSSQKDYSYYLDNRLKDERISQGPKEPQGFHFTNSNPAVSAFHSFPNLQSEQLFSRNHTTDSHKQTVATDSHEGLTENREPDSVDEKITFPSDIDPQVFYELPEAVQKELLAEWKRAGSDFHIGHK

What follows are compounds tested against DNA polymerase iota (Homo sapiens) (UniProt Q9UNA4) (assay: qHTS for Inhibitors of Polymerase Iota). Settings: Pol iota fluorescent replication assay, 10 min; series mostly up to 115 µM; activity, negative = inhibition: at the top concentration.
Outline: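 Pol iota at 10 nM preincubated 15 min with compounds at room temperature; reaction started with fluorescent substrate, 50 nM final. Fluorescence read kinetically at 0 and 10 min; buffer-only wells as negative control.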
In the case of `COc1cccc(-c2ccc3c(N)c(C(=O)c4ccc(Br)cc4)sc3n2)c1`, the Potency is reported as inconclusive: 89.1 µM [inhibitor, single point]. With `O=C(Cc1ccc(Cl)cc1)Nc1nnc2n1CCS2` the “activity, negative = inhibition” value was inactive: 5.4%. With `O=C(N/N=C/c1ccc(O)cc1)c1cccc(N/N=C/c2ccc(O)cc2)c1` the Potency was inconclusive: 50.1 µM [inhibitor, partial curve, poor fit]. In the case of `COc1ccc(N2CCN(S(=O)(=O)c3ccc4c(c3)CC(C)N4C(=O)C3CC3)CC2)cc1` (stereo not drawn), the Potency is reported as inconclusive: 100 µM [inhibitor, single point]. `COc1ccc(C(=O)Nc2ccnn2C2CCN(Cc3ccc4nonc4c3)CC2)cc1` was tested, and the Potency was inconclusive: 56.2 µM [inhibitor, partial curve, poor fit]. In the case of `Cc1nc(N=Nc2ccc(C(=O)O)cc2)c(COP(=O)(O)O)c(C=O)c1O`, the “activity, negative = inhibition” value is reported as inactive: -5.5% [at 58.9 µM]. `O=C1NC(=S)N/C1=C/c1cccc([N+](=O)[O-])c1O` was tested, and the “activity, negative = inhibition” value was inactive: 6.13%. In the case of `COc1ccccc1C(=O)Nc1ncc2c(n1)CC(c1ccco1)CC2=O` (stereo not drawn), the Potency is reported as active: 56.2 µM. With `CCc1cc(CNC(=O)c2ccc(OC3CCN(CCc4ccccc4)CC3)cc2)on1` the Potency was inconclusive: 89.1 µM [inhibitor, single point]. For `COc1cccc(CNC(=O)Cc2csc3ccccc23)c1OC`, the Potency was inconclusive: 50.1 µM [inhibitor, partial curve, poor fit]. For `Cc1c(C#N)c2ccccc2n1CC(=O)O`, the Potency was inconclusive: 11.2 µM [inhibitor, single point]. For `COc1ccc(Cl)cc1NC(=O)CCS(=O)(=O)c1cccc2nonc12`, the “activity, negative = inhibition” value was inactive: 56.2%. `COc1ccc(N2CCN(C(c3ccc(C)cc3)c3nnnn3C(C)(C)C)CC2)cc1` (stereo not drawn) was tested, and the “activity, negative = inhibition” value was inactive: 10.1%. With `COc1ccc(CCNC(=O)c2cc(S(=O)(=O)N(C)c3ccccc3)ccc2Cl)cc1` the Potency was inconclusive: 70.8 µM [inhibitor, partial curve, poor fit]. `Cc1ccc(C)c(/C(O)=C2/C(=O)C(=O)N(CCN3CCOCC3)C2c2ccco2)c1` (stereo not drawn) was tested, and the Potency was inconclusive: 22.4 µM [inhibitor, partial curve, poor fit]. `O=C(Nc1ccc(N2CCOCC2)cc1)C1CCN(S(=O)(=O)c2ccccc2F)CC1` was tested, and the Potency was inconclusive: 89.1 µM [inhibitor, single point]. `Cc1ccc(-c2[nH]c3ccccc3c2SCCNC(=O)c2ccc(S(=O)(=O)N(C)C)cc2)cc1` was tested, and the Potency was inconclusive: 79.4 µM [inhibitor, partial curve]. With `COc1ccc(C(=O)NC(=S)Nc2ccc(S(=O)(=O)Nc3cc(OC)nc(OC)n3)cc2)cc1` the “activity, negative = inhibition” value was inactive: -9.33%.
